Laboratory results: article PMC7431862
No constants are given. Whether binding was seen depends on the method and setting. In cells and extracts the contact can be indirect. Some results given as binding are weak or reduced against the parent protein; the word gives no strength. Tags and fused reporters may be left off the sequences shown.

The chains behind the UniProt entries cited, without tags or fusion partners.
UniProt Q15022: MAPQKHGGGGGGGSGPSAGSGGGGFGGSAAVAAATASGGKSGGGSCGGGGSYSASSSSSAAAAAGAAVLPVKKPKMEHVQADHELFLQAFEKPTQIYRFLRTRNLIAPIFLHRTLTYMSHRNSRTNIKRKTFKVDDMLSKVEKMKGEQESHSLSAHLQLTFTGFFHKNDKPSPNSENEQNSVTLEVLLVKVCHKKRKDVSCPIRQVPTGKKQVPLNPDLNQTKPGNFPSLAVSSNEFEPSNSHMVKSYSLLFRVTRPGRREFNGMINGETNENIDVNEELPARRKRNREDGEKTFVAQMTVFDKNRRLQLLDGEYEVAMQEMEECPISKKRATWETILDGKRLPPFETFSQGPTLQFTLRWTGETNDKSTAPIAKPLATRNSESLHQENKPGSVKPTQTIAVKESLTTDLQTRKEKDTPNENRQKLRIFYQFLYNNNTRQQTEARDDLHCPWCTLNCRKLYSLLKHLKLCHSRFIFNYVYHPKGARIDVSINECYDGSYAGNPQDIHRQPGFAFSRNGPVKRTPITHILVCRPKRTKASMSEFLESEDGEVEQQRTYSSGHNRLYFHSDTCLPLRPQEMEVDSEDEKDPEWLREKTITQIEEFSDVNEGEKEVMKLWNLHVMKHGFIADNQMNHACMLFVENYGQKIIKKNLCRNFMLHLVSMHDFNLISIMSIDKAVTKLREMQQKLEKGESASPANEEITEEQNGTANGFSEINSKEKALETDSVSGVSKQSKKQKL

Target: T1, flag-tagged CTCF (CCCTC-binding factor) (UniProt P49711)
T1 sequence: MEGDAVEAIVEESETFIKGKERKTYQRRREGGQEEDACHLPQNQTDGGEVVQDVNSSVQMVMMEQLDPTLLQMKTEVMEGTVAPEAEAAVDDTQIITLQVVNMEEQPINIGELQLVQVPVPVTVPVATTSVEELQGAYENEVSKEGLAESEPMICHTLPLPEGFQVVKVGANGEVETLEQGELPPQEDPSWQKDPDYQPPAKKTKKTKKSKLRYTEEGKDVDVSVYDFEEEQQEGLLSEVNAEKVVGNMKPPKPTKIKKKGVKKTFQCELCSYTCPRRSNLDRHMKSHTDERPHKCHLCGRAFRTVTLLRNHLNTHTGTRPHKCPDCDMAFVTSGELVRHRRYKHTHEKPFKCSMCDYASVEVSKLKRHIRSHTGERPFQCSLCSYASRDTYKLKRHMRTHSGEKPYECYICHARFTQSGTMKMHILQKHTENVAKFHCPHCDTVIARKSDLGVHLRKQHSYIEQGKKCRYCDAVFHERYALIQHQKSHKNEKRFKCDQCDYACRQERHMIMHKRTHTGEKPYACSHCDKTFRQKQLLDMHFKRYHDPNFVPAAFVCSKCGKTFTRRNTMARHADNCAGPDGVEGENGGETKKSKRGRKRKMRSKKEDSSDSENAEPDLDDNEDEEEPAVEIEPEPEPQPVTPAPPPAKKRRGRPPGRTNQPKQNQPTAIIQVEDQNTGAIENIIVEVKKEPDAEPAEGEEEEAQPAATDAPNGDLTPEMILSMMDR
Assay: co-IP; HEK293T cells transfected for 48 h with Flag-CTCF and HA-SUZ12 vectors; lysed in NP-40 buffer (170 mM NaCl, 10 mM EDTA, 50 mM Tris pH 7.4, 50 mM NaF, 0.5% NP-40); 300 ug lysate with 2 ug IgG or antibody, Protein A/G beads; anti-Flag and anti-HA antibodies; Western blot

- binding: binds
Substance: HA-tagged SUZ12 (from UniProt Q15022 1-739)
